Compound in this experiment: CC1Cc2ccccc2N1C(=O)C1CCCN(C1)C(=O)CCl (mixture of isomers) [TRIM25 ligand 11 (diastereomer mixture)]
The experiment in a line: probe-labelled cysteine peptide fold change vs DMSO (competition) (log2 fold change); higher = less target engagement (more negative = stronger competition). The note with it: THP-1, incubation time: 4 h.

Amino acid sequences for entries named in this document (tags omitted). A change or cut given only in a name is not applied to a line headed by its entry.
UniProt Q9Y613: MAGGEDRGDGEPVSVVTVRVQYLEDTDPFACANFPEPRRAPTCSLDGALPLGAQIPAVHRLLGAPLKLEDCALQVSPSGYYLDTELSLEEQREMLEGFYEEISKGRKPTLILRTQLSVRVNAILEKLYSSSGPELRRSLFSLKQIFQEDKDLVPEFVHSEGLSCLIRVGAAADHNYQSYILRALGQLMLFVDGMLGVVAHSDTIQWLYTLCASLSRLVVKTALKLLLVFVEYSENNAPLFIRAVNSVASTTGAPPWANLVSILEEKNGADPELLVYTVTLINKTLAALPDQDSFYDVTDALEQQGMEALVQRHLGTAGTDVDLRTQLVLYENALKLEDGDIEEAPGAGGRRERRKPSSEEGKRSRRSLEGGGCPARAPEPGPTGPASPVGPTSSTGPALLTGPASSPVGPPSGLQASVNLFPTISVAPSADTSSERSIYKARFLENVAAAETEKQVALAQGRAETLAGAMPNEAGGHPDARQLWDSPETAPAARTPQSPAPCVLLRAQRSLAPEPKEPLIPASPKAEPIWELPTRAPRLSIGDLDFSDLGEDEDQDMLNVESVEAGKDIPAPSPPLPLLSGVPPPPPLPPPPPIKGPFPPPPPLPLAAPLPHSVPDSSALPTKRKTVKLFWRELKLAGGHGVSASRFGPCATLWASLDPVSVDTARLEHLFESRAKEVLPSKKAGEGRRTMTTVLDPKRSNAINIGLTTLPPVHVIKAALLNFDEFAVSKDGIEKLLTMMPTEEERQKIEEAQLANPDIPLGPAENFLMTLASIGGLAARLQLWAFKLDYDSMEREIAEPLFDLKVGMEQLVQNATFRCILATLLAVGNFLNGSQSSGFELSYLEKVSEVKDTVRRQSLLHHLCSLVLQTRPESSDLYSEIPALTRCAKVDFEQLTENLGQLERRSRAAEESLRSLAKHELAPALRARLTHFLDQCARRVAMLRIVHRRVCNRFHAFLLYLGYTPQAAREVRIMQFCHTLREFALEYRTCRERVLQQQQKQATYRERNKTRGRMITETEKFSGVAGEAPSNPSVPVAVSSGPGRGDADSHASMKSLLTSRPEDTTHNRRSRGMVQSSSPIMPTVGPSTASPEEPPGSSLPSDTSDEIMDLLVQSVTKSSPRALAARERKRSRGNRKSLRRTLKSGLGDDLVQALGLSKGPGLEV
UniProt P11413, whole entry, looked up: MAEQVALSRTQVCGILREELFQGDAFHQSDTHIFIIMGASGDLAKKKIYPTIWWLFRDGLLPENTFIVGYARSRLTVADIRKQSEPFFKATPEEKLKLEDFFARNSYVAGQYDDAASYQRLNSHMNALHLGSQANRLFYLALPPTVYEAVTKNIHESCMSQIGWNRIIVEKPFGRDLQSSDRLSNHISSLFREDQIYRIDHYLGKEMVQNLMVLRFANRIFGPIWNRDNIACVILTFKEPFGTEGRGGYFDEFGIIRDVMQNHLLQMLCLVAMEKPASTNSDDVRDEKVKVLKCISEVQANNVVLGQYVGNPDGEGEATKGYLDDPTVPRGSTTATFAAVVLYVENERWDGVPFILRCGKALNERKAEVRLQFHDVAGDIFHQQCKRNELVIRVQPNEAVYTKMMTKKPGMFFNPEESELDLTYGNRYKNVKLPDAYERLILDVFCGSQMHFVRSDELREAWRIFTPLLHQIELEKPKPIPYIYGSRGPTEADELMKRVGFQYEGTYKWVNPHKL
UniProt Q9UN86: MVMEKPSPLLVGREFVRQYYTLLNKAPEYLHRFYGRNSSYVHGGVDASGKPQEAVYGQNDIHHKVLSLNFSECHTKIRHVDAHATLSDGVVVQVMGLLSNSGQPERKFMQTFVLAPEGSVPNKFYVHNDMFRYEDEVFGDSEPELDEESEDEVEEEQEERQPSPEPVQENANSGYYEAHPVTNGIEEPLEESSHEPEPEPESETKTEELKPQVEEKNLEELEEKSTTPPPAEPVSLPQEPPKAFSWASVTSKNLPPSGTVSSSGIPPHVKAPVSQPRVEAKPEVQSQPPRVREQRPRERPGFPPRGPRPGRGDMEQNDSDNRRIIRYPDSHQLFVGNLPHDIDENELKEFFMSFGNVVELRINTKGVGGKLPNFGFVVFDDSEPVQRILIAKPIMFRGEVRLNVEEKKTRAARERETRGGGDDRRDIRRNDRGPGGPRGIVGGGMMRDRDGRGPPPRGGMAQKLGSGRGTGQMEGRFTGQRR
UniProt Q9BTY2: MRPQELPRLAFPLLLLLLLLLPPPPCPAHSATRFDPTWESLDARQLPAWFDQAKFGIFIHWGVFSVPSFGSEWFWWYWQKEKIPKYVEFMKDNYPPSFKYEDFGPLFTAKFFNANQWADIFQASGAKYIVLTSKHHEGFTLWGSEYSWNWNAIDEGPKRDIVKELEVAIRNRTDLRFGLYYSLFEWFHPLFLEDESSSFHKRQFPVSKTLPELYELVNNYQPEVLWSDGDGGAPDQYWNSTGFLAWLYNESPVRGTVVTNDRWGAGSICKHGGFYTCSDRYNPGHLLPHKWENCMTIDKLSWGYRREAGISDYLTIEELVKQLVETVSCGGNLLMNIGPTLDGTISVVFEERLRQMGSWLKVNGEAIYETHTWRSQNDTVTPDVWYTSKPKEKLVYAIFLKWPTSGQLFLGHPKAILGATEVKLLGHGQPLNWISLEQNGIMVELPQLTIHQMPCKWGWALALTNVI
UniProt O75369, whole entry, looked up: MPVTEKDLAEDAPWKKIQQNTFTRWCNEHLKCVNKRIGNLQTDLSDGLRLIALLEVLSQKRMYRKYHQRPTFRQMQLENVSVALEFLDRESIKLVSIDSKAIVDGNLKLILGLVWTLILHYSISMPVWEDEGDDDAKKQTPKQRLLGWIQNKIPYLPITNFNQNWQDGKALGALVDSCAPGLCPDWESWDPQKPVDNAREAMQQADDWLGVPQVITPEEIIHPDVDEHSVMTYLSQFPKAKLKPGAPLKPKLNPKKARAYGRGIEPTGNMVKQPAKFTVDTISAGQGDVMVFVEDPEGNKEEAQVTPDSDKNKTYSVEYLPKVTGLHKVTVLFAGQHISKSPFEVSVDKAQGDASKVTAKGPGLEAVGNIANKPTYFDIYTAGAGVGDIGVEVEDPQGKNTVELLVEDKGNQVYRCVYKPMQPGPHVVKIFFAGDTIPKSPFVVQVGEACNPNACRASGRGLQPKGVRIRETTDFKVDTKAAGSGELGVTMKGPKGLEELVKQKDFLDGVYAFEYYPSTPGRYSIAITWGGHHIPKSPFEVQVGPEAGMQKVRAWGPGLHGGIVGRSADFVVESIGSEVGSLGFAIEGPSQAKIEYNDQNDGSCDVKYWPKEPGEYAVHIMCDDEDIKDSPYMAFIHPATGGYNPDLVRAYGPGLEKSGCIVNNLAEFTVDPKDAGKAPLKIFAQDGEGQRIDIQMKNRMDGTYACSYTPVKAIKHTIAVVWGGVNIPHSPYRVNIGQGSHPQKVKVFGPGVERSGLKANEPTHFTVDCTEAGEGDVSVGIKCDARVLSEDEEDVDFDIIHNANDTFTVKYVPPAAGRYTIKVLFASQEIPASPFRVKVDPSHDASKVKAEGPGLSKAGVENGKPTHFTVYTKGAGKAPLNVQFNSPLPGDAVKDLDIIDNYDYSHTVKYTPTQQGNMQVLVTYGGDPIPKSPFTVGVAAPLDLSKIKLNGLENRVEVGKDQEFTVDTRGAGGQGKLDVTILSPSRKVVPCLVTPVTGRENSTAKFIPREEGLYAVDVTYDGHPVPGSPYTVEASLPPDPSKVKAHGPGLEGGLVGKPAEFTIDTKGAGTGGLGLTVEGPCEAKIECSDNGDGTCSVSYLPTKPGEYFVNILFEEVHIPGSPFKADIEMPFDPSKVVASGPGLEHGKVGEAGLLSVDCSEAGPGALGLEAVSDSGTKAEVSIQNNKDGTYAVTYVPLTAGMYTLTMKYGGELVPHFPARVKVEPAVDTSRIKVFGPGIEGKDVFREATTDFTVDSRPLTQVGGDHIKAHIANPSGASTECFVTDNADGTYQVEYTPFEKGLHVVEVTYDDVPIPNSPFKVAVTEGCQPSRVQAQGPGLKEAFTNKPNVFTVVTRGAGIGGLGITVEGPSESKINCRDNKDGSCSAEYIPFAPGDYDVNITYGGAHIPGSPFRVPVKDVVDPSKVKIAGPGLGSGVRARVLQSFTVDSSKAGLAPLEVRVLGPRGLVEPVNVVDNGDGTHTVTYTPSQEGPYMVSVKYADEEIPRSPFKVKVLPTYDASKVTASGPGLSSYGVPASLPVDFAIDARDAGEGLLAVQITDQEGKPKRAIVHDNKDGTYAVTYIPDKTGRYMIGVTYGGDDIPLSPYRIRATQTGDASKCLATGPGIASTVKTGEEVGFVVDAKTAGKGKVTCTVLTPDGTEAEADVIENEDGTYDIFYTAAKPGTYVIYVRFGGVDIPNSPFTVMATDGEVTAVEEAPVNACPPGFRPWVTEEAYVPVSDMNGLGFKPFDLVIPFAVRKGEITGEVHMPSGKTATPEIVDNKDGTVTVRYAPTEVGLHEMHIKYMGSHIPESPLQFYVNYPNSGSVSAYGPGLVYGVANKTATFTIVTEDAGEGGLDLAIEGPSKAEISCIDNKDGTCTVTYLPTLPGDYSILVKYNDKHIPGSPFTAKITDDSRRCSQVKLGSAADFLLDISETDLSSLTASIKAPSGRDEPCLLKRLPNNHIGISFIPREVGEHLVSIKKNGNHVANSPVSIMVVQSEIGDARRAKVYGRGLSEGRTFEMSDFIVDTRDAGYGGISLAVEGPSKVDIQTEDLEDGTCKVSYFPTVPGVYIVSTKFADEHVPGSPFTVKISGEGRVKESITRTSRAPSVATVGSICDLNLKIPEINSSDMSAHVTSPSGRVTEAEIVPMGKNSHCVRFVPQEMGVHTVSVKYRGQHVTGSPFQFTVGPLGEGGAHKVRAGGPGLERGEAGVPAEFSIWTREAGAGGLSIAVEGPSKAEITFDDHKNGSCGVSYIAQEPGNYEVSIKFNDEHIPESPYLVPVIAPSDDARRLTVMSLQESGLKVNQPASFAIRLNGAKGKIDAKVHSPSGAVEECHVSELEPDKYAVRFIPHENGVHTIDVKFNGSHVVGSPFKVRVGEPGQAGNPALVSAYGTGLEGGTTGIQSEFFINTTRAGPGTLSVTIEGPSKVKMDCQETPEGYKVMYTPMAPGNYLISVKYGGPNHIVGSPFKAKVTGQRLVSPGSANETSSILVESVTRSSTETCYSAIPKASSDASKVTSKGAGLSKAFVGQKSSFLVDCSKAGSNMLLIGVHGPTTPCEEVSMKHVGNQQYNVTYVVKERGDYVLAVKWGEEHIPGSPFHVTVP
UniProt Q13045: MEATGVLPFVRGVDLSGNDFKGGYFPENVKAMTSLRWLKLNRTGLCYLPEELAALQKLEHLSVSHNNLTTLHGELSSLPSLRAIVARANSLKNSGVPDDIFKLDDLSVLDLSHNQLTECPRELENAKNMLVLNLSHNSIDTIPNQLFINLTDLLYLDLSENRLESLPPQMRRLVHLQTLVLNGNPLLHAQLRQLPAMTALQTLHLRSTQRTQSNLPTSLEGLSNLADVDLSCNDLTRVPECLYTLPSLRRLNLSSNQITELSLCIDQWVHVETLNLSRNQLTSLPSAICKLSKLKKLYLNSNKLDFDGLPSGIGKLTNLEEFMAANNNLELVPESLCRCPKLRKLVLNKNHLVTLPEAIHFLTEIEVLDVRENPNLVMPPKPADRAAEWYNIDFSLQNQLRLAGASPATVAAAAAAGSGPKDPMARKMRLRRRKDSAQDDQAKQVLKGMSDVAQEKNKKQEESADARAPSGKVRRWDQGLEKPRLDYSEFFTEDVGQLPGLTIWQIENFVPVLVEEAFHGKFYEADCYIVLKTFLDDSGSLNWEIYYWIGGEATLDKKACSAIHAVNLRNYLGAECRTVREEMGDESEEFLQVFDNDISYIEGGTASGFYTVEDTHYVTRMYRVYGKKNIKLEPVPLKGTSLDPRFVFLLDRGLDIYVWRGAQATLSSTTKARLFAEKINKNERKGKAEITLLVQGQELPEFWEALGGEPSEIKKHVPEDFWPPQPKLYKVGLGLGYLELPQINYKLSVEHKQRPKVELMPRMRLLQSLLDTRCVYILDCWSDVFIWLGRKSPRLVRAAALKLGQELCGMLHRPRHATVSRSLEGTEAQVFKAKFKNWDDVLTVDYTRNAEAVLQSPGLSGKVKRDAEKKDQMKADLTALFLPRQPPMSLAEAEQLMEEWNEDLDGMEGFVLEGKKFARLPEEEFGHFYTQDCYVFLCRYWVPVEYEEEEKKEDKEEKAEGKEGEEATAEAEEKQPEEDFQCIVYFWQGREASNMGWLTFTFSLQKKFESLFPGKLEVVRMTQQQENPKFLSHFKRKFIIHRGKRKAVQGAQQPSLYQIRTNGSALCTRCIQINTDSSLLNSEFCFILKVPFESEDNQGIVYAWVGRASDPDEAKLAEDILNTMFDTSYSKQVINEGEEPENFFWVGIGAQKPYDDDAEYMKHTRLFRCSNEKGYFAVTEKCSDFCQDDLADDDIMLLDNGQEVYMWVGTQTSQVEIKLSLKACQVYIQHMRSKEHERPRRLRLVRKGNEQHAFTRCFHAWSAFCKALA

Some of the results follow.
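Further: competitive chemoproteomic profiling in live THP-1 cells with an iodoacetamide desthiobiotin (IA-DTB) probe, comparing probe-labelled peptide intensities in compound-treated cells against DMSO-treated controls.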

As for “FHOD1_Q9Y613_43_APTCSLDGALPLGAQIPAVHR (UniProt Q9Y613)”, the “probe-labelled cysteine peptide fold change” value came out at 0.156 (10 µM) and 0.151 (50 µM).

In the case of “G6PD_P11413_385_LQFHDVAGDIFHQQCK (UniProt P11413)”, the “probe-labelled cysteine peptide fold change” value runs as follows: (10 µM) 0.0035; (50 µM) 0.0691.

Turning to “G3BP2_Q9UN86_73_VLSLNFSECHTK (UniProt Q9UN86)”, the “probe-labelled cysteine peptide fold change” value is, setting by setting: (10 µM) -0.00192; (50 µM) -0.0874.

For the target “FUCA2_Q9BTY2_294_WENCMTIDK (UniProt Q9BTY2)”, the “probe-labelled cysteine peptide fold change” value by setting is: (10 µM) 0.00355; (50 µM) 0.0164.

On to “FLNB_O75369_1868_AEISCIDNK (UniProt O75369)”, for which the “probe-labelled cysteine peptide fold change” value is -0.0828 (10 µM) and 0.152 (50 µM).

In the case of “FTSJ3_Q8IY81_577_QQLPQTPPSCLK (UniProt Q8IY81)”, the “probe-labelled cysteine peptide fold change” value reads like this: (10 µM) -0.164; (50 µM) -0.174.

For “G6PD_P11413_385_LQFHDVAGDIFHQQCKR (UniProt P11413)”, the “probe-labelled cysteine peptide fold change” value reads like this: (10 µM) -0.408; (50 µM) -0.258.

“FHL2_Q14192_275_GFLTERDDILCPDCGK (UniProt Q14192)”: the “probe-labelled cysteine peptide fold change” value is -0.0813 (10 µM) and -0.0756 (50 µM).

“FOXK1_P85037_665_VCEVGPK (UniProt P85037)”: the “probe-labelled cysteine peptide fold change” value is, setting by setting: (10 µM) 0.0246; (50 µM) -0.141.

“FLNB_O75369_2431_MDCQETPEGYK (UniProt O75369)”: the “probe-labelled cysteine peptide fold change” value runs as follows: (10 µM) 0.0123; (50 µM) 0.0204.

As to “FLII_Q13045_1265_CFHAWSAFCK (UniProt Q13045)”, the “probe-labelled cysteine peptide fold change” value reads like this: (10 µM) 0.157; (50 µM) 0.188.

As to “FN1_P02751_179_GEWTCKPIAEK (UniProt P02751)”, the “probe-labelled cysteine peptide fold change” value runs as follows: (10 µM) 0.224; (50 µM) -0.0449.

As for “GAK_O14976_560_YIEYMCDMVAEEPITPHSKPILVR (UniProt O14976)”, the “probe-labelled cysteine peptide fold change” value is -0.164 (10 µM) and -0.257 (50 µM).

As to “FNBP1_Q96RU3_555_VLATDFDDEFDDEEPLPAIGTCK (UniProt Q96RU3)”, the “probe-labelled cysteine peptide fold change” value was -0.0784 (10 µM) and -0.037 (50 µM).

For “FKBP5_Q13451_107_KGEICHLLCKPEYAYGSAGSLPK (UniProt Q13451)”, the “probe-labelled cysteine peptide fold change” value reads like this: (10 µM) -0.0225; (50 µM) 0.0393.
